In US7355074B2, “Compounds having aromatic rings and side-chain amide-functionality and a method for transporting monovalent anions across biological membranes using the same” (The University of Maryland, priority 2003, dated 2008):
Some results were stated once for a whole list of compounds, not compound by compound. At least one compound was matched to its structure with a doubt left.

Assay: pH changes in liposomes experiencing a Cl- gradient (oligophenoxyacetamides)
Assay type: biochemical
Details: 4 mol %; NaCl-loaded liposomes in Na2SO4 buffer
Experimental: FIG. 2B illustrates alkanization of the vesicular aqueous compartment upon application of compounds 1-6 to a suspension of NaCl-containing vesicles in isosmomolar Na2SO4 buffer. Concentration of compounds 1-6 in the vesicular suspension was 20 μm (4 mol %). Legend for traces denotes use of oligocompounds 1, 2, 3, 4, 5, 6.
Liposome Preparation for Fluorimetric Assays. Egg yolk L-α-phosphatidylcholine (EYPC ethanol solution, […], 79 μmol) was dissolved in a CHCl3/MeOH mixture, the solution was evaporated under reduced pressure and the resulting thin film was dried under high vacuum for 2 h. The lipid film was hydrated in 1.2 mL of phosphate buffer (10 mM sodium phosphate, pH=6.4, 75-100 mM MnX, M=N^+, K^+, X=Cl^−, SO4^2−, n=1,2) containing 10 μM HPTS (pyranine, 8-hydroxypyrene-1,3,6-trisulfonic acid trisodium salt) for 40 min. […]
Analysis of pH changes in the liposomes experiencing a CT gradient. a) Outwardly directed gradient of Cl:HPTS-loaded vesicles (100 μL of the stock solution), filled with a saline phosphate buffer (10 mM sodium phosphate, pH 6.4, 100 mM NaCl) were suspended in 1.9 mL of an isosmotic phosphate sulfate buffer (10 mM sodium phosphate, pH 6.0, 75 mM Na2SO4) and placed into a fluorimetric cell. The emission of HPTS at 510 nm was monitored with excitation wavelengths at 403 and 460 nm simultaneously. […] Safranin O emission was monitored at 580 nm with excitation at 520 nm. […]

Structure (SMILES): CCCCNC(=O)COc1ccccc1Cc1cccc(Cc2cccc(Cc3cccc(Cc4ccccc4OCC(=O)NCCCC)c3OCC(=O)NCCCC)c2OCC(=O)NCCCC)c1OCC(=O)NCCCC [pentamer 5, Pentakis-(N-butyl-2-phenoxyacetamide)]
- time to reach the pH gradient: > 7 minutes
